The campaign covered roughly 300,000 compounds. About 5,400 (1.8%) were called active. The inconclusive results got no clear call from the source; some entries with a clear call stand among them for comparison. The call rests on the fitted dose curve; tested in HEK293 cells. A potency beside an inconclusive call is a rough fit, not a confirmed value.
Assay: qHTS for inhibitors of binding or entry into cells for Marburg Virus
Conditions: Marburg virus pseudotyped entry inhibition, cell reporter; activity change, negative = inhibition: at 37.8 µM (top of the series) unless noted
On the % scale 0 is the no-effect control and ±100 the full control effect; potency means the concentration at half of the fitted maximal effect.

Row | Structure (SMILES) | Potency | activity change, negative = inhibition
1 | Cc1nnc(Sc2cc(NCCO)c([N+](=O)[O-])c3nonc23)s1 | inconclusive: 31.6 µM [inhibitor, single point] | –
2 | O=C1CC(=O)N(Cc2ccco2)C(=O)N1 | inconclusive: 11.6 µM [inhibitor, partial curve] | –
3 | c1ccc(N/N=C2\CCCc3ccccc32)nc1 | inconclusive: 3.55 µM [inhibitor, partial curve, poor fit] | –
4 | Cc1nc([N+](=O)[O-])c(Sc2nc3ccccc3n2C)n1Cc1ccccc1 | inconclusive: 0.0517 µM [inhibitor, full curve, poor fit] | –
5 | CCCc1c(C(=O)OCC)nnc2c(-c3ccccc3)c(C)nn12 | inactive | –
6 | Cc1ccc(/C=N/NC(=O)CSc2nnc(-c3ccccc3)n2-c2ccc(Cl)cc2)o1 | inactive | –
7 | CCCN(C(=O)c1cc2c(=O)n(CC)c3ccccc3c2s1)c1ccccc1F | inactive | –
8 | COc1cc(NC(=O)Cn2c(=O)n(Cc3ccccc3Cl)c(=O)c3cc(OC)c(OC)cc32)cc(OC)c1 | – | inconclusive: 0.691% [activator] [at 46.1 µM]
9 | CCSC(=O)NC12CC3CC(CC(C3)C1)C2 | inconclusive: 16.4 µM [activator, partial curve, poor fit] | –
10 | CCc1cc(=O)oc2cc3occ(-c4ccc(OC)c(F)c4)c3cc12 | inconclusive: 2 µM [inhibitor, full curve, poor fit] | –
11 | CNC(=S)N/N=C(\C)c1ccc(C)c(C)c1 | inconclusive: 2.91 µM [activator, partial curve, poor fit] | –
12 | COc1cc(/C=C(/NC(C)=O)C(=O)O)cc(Cl)c1OCc1ccc(Br)cc1 | inconclusive: 2.82 µM [inhibitor, single point] | –
13 | CCOc1cc(N2CCOCC2)c(OCC)cc1NC(=O)c1cccc(S(=O)(=O)N2CCOCC2)c1 | inactive | –
14 | COc1ccc(-c2cc(C3CCN(c4ccc(C(C)=O)cc4[N+](=O)[O-])CC3)[nH]n2)cc1 | inconclusive: 14.6 µM [inhibitor, partial curve, poor fit] | –
15 | CCc1ccc(NS(=O)(=O)c2ccc(OC)c3ncccc23)cc1 | inactive | –
16 | O=C1CC(c2cccs2)CC2=C1C(c1ccccc1)n1ncnc1N2 (stereo unspecified) | inactive | –
17 | Cc1ncoc1C(=O)NCc1ccccc1Cl | inconclusive: 35.5 µM [activator, single point] | –
18 | COc1ccc2c(c1)cc(C(O)c1ccccn1)n2S(=O)(=O)c1ccccc1 (stereo unspecified) | inactive | –
19 | N#Cc1c(N)nc2c(c1N)CC(COc1ccccc1)O2 (stereo unspecified) | inconclusive: 6.31 µM [activator, single point] | –
20 | O=S(=O)(Nc1cccc(-c2ccc(N3CCOCC3)nn2)c1)c1cc(Cl)ccc1Cl | inconclusive: 20 µM [inhibitor, single point] | –
21 | CC(C)(C)c1ccc(NC(=O)COC(=O)c2ccc(NS(=O)(=O)c3ccc(F)c(F)c3)cc2)cc1 | inconclusive: 0.158 µM [inhibitor, full curve, poor fit] | –
22 | CCN(CC)CCNC(=O)c1ccc(NC(=O)c2ccc(S(=O)(=O)N3CCCCCC3)cc2)cc1 | inconclusive: 22.4 µM [inhibitor, single point] | –

Looked up above.
Potency, `O=C1CC(c2cccs2)CC2=C1C(c1ccccc1)n1ncnc1N2` (stereo unspecified) is entered as inactive
Potency, `CCCN(C(=O)c1cc2c(=O)n(CC)c3ccccc3c2s1)c1ccccc1F` is entered as inactive
Potency, `Cc1nnc(Sc2cc(NCCO)c([N+](=O)[O-])c3nonc23)s1` is entered as inconclusive: 31.6 µM [inhibitor, single point]
Potency, `CNC(=S)N/N=C(\C)c1ccc(C)c(C)c1` is entered as inconclusive: 2.91 µM [activator, partial curve, poor fit]

Part of the list above in order of length of the SMILES, falling.
Row | Structure (SMILES) | Potency | activity change, negative = inhibition
22 | CCN(CC)CCNC(=O)c1ccc(NC(=O)c2ccc(S(=O)(=O)N3CCCCCC3)cc2)cc1 | inconclusive: 22.4 µM [inhibitor, single point] | –
18 | COc1ccc2c(c1)cc(C(O)c1ccccn1)n2S(=O)(=O)c1ccccc1 (stereo unspecified) | inactive | –
1 | Cc1nnc(Sc2cc(NCCO)c([N+](=O)[O-])c3nonc23)s1 | inconclusive: 31.6 µM [inhibitor, single point] | –

Next part

Row | Structure (SMILES) | Potency | activity change, negative = inhibition
23 | Nc1nc(Cl)cc(Sc2ccc(F)cc2)n1 | inactive | –
24 | Cc1ccc(-c2c(C)sc3ncn(CC(=O)N4CCOCC4)c(=O)c23)cc1C | inconclusive: 35.5 µM [inhibitor, single point] | –
25 | O=C(Cn1cc(S(=O)(=O)c2ccc(Cl)cc2)c(=O)c2ccccc21)Nc1ccc2c(c1)OCO2 | inactive | –
26 | Cc1cc(C)cc(N(C(=O)c2csnn2)C(C(=O)NC2CCCCC2)c2ccccn2)c1 (stereo unspecified) | inactive | –
27 | Cc1ccc(NS(=O)(=O)c2ccc(NC(=O)C3CC3)cc2)cc1C | inconclusive: 0.631 µM [inhibitor, full curve, poor fit] | –
28 | OC(CNc1ccnc2cc(Cl)ccc12)CNC1CCCCC1 (stereo unspecified) | inconclusive: 1.12 µM [inhibitor, full curve, poor fit] | –
29 | NC(=O)COC(=O)c1ccccc1OCc1ccccc1Cl | inconclusive: 35.5 µM [activator, single point] | –
30 | Fc1ccc([C@@H]2Nc3ccccc3[C@@H]3C=CC[C@@H]32)cc1 | inconclusive: 3.98 µM [inhibitor, partial curve, poor fit] | –
31 | CCOc1ccc(/C=C/C(=O)c2cc(Br)ccc(=O)c2O)cc1 | inconclusive: 29.1 µM [inhibitor, single point] | –
32 | O=C(CN1CCC(n2nnc3cc(C(F)(F)F)ccc32)CC1)Nc1ccc2c(c1)OCCO2 | inconclusive: 29.1 µM [inhibitor, single point] | –
33 | COc1ccc(Nc2nc(C)nc3sc4c(c23)CCC4)cc1O | inconclusive: 0.631 µM [inhibitor, full curve, poor fit] | –
34 | CCOC(=O)c1c(C)[nH]c(C(=O)Cn2c(=O)oc3ccccc32)c1C | inconclusive: 14.1 µM [inhibitor, partial curve, poor fit] | –
35 | CSc1nc(N)nc(SCC(=O)Nc2cccc(F)c2)c1C#N | inconclusive: 18.4 µM [inhibitor, single point] | –
36 | COc1ccccc1N1CCN(C(=O)C(=O)c2cn(CC(=O)N3CCCCCC3)c3ccccc23)CC1 | inactive | –
37 | CCN(c1ccccc1)S(=O)(=O)c1ccc2c(c1)CCCN2C(C)=O | inactive | –
38 | CS(=O)(=O)Nc1ccc(C(=O)NCCSCc2ccco2)cc1 | inactive | –
39 | Cc1ccc(Cn2c(/C=C/c3ccco3)nc3ccccc32)cc1 | inconclusive: 2.06 µM [activator, full curve, poor fit] | –
40 | Cc1ccc(OCCCC(=O)NNC(=O)c2ccccn2)cc1 | inconclusive: 17.8 µM [inhibitor, single point] | –
41 | Cc1ccc2[nH]c(=O)c(CN(C(=O)c3cccs3)c3ccccc3)cc2c1 | inconclusive: 2.51 µM [activator, single point] | –
42 | O=c1c2c(nc3cc(-c4ccccc4)[nH]n13)CCS2 | inconclusive: 5.01 µM [inhibitor, full curve, poor fit] | –
43 | CC1CCN(C(=O)CN2c3ccc(C(C)C)cc3-c3ccccc3S2(=O)=O)CC1 | inconclusive: 35.5 µM [inhibitor, single point] | –
44 | COc1ccc(OCCSCc2nnc(NC(=O)Nc3ccc(Cl)cc3)s2)cc1 | inconclusive: 0.355 µM [inhibitor, full curve, poor fit] | –

Row | Structure (SMILES) | Potency | activity change, negative = inhibition
45 | CC1(C)SC(=S)N(/N=C/c2ccccc2O)C1N(O)C(=O)Nc1ccccc1 (stereo unspecified) | inconclusive: 31.6 µM [inhibitor, single point] | –
46 | Cn1nc(C(=O)NCc2ccc(F)cc2)c2c1-c1ccccc1SC2 | inconclusive: 0.562 µM [inhibitor, full curve, poor fit] | –
47 | COCc1ccc(C(=O)N(C)CC2CCCN(CCc3ccc(Cl)cc3)C2)o1 (stereo unspecified) | inconclusive: 0.0891 µM [activator, full curve, poor fit] | –
48 | CCC(c1nnnn1Cc1ccc2c(c1)OCO2)N1CCN(c2ccc(F)cc2)CC1 (stereo unspecified) | inconclusive: 12.6 µM [inhibitor, partial curve, poor fit] | –
49 | Cc1ccc(NC(=O)COC(=O)CCC(=O)c2ccc(C(C)(C)C)cc2)c([N+](=O)[O-])c1 | inactive | –
50 | CCN(CC)C(=O)c1cc([N+](=O)[O-])cc2c1-c1ccc([N+](=O)[O-])cc1C2=C(C#N)C#N | inconclusive: 3.55 µM [inhibitor, partial curve, poor fit] | –
51 | C#C[C@]1(O)CC[C@H]2[C@H]3CCC4=Cc5oncc5C[C@]4(C)[C@@H]3CC[C@]21C | active: 20.6 µM | –
52 | CCN(C#N)c1nc(NC(C)C)nc(NC(C)(C)C)n1 | inconclusive: 31.6 µM [activator, single point] | –
53 | CC(C)OCCCn1c(SC(C)C(=O)NC2CC2)nc2ccccc2c1=O (stereo unspecified) | inactive | –
54 | CCc1ccc(NSc2ccccc2[N+](=O)[O-])cc1 | inconclusive: 9.2 µM [inhibitor, partial curve] | –
55 | CN(C)c1c([N+](=O)[O-])ncn1C | inactive | –
56 | CCN(CC)S(=O)(=O)c1ccc(N/N=C/c2ccc(O)cc2O)nc1 | active: 3.26 µM | –
57 | Cc1nn(-c2ccccc2)c(Cl)c1/C=N/NC(=O)CNC(=O)c1ccccc1Cl | inconclusive: 29.1 µM [inhibitor, single point] | –
58 | C[C@H]1C(C(=O)N2CCCC2)=Cc2[nH]c(=O)[nH]c2C=C1c1ccccc1 | inactive | –
59 | COc1ccc(CCNC(=O)C2CCCN2C(=O)Nc2ccc(F)cc2)cc1OC (stereo unspecified) | inconclusive: 6.31 µM [inhibitor, single point] | –
60 | Cc1ccc(C)c(Cn2cnc3c(cnn3-c3ccc(F)cc3)c2=O)c1 | inactive | –
61 | COc1ccccc1N(CC(O)Cn1c2ccccc2c2ccccc21)S(=O)(=O)c1ccccc1 (stereo unspecified) | inconclusive: 11.2 µM [inhibitor, partial curve] | –
62 | O=C(COC(=O)Cc1ccccc1F)Nc1ccc2c(c1)OCCO2 | inactive | –
63 | O=C(NC(=S)Nc1ccccc1N1CCN(C(=O)c2ccccc2)CC1)c1ccccc1F | inconclusive: 35.5 µM [inhibitor, single point] | –
64 | CCOC(=O)c1c(NC(=O)COC(=O)c2ccccn2)sc2c1CCC2 | inconclusive: 3.98 µM [activator, full curve, poor fit] | –
65 | CC(=O)N1CCN(S(=O)(=O)c2cccc(C(=O)Nc3ccccc3N3CCCCC3)c2)CC1 | inactive | –
66 | COc1ccc2cc3c(N)nn(C(=O)c4cccc([N+](=O)[O-])c4)c3nc2c1 | inconclusive: 5.01 µM [inhibitor, full curve, poor fit] | –
